Test results published in the supplement of paper PMC12823440, “Inhibitors supercharge kinase turnover through native proteolytic circuits” (Nature, 2025).
Counter-ions that a name gives are not always drawn. Some of the results follow. Hit calls seldom repeat between salt and free forms of one compound.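 In K562 cells expressing nanoluciferase-fused kinases, luminescence was recorded at 4 h intervals between 2 and 18 h, normalized as percent of control with DMSO at 100% and a positive control at 0%. A significant (2 sigma) signal drop marks a time point as decreased. The authors' rule for a hit is not shown and takes in more than the number of time points.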

By UniProt entry, the sequences of proteins in these tests, tags left out. Where a name states a change or a piece, a line headed by the entry shows the natural chain unless it says otherwise.
UniProt P07949, whole entry, looked up: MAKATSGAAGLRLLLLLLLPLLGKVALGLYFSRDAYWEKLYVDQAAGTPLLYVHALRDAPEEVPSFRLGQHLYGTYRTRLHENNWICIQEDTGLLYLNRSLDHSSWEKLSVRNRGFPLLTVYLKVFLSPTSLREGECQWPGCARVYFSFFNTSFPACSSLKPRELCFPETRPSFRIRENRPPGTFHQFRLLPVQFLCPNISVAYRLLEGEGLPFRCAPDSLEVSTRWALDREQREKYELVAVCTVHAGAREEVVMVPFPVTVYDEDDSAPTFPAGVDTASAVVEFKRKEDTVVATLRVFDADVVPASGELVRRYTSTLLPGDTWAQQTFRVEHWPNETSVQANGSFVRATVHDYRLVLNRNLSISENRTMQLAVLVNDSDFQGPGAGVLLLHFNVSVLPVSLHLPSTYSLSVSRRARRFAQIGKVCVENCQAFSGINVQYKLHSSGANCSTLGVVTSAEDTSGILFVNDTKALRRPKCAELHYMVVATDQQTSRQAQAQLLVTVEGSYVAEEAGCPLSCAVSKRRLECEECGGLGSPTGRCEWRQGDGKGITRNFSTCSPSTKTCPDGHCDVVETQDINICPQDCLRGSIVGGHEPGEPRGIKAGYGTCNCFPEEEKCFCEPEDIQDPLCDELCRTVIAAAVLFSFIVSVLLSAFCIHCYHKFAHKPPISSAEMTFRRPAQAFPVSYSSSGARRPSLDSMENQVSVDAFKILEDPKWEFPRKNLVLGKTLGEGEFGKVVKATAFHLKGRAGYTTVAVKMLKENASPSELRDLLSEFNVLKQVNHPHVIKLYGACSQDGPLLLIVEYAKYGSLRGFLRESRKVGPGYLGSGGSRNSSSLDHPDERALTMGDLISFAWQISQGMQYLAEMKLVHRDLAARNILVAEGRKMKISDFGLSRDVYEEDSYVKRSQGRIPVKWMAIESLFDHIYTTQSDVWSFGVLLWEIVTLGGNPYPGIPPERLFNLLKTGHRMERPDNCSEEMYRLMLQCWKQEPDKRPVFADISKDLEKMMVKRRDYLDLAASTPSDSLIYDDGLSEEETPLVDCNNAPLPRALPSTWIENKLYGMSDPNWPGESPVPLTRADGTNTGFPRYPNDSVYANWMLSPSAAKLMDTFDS
UniProt P07949, whole entry M918T, looked up: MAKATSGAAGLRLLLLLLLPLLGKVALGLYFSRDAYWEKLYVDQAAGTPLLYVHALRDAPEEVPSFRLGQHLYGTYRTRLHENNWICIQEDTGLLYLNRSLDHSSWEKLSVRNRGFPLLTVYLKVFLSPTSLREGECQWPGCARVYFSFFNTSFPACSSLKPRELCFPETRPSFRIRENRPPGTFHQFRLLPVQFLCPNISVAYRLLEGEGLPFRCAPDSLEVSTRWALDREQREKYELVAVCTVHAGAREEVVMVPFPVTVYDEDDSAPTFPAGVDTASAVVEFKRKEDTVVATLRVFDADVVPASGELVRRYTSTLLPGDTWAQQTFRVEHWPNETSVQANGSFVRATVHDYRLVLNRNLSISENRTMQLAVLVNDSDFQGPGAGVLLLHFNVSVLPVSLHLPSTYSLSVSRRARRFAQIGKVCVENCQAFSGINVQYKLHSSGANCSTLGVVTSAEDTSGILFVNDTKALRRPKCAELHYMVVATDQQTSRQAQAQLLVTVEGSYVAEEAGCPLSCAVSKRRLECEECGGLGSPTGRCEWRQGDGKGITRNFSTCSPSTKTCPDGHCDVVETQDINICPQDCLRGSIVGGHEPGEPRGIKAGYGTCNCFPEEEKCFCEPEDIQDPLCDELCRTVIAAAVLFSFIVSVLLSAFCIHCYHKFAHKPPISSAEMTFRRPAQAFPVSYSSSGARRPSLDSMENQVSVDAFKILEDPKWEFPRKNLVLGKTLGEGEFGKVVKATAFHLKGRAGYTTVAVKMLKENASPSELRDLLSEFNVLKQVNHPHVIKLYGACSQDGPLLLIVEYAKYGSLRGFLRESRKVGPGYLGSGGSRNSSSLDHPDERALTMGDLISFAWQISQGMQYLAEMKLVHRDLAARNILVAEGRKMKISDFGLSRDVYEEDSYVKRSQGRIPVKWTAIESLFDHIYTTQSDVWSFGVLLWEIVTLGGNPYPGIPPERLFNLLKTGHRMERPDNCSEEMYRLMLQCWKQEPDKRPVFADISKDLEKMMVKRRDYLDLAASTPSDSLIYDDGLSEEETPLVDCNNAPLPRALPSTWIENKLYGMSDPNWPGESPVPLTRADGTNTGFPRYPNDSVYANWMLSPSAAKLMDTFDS
UniProt Q9BRS2: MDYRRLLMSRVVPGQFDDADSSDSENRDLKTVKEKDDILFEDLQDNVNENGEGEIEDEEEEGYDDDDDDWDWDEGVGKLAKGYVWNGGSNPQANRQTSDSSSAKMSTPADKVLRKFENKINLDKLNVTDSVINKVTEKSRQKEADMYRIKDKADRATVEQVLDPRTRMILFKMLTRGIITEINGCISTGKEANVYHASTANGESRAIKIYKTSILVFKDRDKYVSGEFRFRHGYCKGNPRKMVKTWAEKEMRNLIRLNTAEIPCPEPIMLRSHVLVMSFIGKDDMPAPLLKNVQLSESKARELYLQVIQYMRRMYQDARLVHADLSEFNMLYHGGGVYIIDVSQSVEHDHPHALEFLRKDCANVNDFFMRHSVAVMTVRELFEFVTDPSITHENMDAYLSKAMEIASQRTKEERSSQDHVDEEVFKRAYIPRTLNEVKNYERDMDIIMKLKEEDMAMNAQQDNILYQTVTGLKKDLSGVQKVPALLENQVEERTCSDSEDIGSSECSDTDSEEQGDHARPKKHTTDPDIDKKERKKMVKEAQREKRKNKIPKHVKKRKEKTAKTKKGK
UniProt Q13546: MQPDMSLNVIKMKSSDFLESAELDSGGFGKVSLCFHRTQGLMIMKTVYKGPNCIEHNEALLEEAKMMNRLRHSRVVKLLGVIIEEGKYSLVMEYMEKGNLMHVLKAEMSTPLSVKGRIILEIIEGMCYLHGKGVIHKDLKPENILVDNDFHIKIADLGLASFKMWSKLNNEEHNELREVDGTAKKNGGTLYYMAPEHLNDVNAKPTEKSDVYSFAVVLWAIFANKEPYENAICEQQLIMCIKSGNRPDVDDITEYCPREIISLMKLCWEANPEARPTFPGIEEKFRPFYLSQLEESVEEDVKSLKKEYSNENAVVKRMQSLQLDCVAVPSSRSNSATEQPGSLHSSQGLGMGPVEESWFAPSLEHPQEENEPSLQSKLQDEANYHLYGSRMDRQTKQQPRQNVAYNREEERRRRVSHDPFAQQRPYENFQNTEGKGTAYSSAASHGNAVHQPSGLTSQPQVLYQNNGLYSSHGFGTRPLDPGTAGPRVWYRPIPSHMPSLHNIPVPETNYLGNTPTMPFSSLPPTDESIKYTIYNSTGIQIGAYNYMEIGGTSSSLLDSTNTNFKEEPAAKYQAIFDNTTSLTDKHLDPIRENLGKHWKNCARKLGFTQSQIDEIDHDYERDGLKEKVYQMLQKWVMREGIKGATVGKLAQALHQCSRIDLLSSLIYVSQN
UniProt Q01974, whole entry: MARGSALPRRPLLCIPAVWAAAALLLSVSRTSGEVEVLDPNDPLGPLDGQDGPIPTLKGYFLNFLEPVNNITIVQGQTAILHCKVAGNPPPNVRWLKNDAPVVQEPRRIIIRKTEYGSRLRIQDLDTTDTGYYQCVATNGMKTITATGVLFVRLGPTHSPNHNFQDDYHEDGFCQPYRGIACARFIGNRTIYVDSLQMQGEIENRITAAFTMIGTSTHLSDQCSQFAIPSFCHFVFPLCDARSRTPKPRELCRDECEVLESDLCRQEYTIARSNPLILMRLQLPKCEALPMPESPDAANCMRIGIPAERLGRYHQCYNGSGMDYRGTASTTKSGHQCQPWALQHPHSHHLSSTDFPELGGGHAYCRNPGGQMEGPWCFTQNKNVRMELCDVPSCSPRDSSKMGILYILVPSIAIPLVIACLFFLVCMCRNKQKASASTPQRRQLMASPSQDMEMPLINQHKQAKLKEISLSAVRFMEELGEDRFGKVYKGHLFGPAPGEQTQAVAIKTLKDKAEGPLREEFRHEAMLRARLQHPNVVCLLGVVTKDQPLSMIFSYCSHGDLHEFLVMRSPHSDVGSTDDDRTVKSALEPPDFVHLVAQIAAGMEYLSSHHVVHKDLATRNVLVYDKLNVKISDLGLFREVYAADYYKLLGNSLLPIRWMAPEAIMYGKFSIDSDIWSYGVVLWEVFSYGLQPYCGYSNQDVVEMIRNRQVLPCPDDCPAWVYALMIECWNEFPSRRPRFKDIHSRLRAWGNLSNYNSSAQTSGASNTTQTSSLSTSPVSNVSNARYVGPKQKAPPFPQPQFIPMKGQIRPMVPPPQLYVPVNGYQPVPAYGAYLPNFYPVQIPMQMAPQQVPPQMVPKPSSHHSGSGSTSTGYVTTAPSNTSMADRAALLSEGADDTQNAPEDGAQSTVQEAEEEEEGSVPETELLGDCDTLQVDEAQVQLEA
UniProt Q15418, whole entry: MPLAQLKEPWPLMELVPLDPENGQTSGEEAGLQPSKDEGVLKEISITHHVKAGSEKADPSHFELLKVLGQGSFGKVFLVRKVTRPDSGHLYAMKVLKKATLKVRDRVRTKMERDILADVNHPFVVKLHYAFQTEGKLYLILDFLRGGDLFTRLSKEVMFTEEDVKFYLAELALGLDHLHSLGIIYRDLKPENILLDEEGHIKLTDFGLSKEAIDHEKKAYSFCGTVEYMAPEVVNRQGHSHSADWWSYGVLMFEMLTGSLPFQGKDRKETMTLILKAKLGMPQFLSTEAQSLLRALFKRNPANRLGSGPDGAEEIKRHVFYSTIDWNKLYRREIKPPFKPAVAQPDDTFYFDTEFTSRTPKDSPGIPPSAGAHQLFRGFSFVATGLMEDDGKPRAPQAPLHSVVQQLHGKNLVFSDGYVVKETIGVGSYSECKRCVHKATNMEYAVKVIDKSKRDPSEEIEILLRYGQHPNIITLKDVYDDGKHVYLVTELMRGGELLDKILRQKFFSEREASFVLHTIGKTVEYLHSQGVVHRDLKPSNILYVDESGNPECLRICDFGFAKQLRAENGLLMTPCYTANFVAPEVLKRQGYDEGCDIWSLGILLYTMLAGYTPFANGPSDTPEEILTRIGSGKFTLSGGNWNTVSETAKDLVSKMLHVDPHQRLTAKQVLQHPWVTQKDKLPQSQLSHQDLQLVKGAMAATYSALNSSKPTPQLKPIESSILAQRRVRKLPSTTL
UniProt Q9NYA1, whole entry: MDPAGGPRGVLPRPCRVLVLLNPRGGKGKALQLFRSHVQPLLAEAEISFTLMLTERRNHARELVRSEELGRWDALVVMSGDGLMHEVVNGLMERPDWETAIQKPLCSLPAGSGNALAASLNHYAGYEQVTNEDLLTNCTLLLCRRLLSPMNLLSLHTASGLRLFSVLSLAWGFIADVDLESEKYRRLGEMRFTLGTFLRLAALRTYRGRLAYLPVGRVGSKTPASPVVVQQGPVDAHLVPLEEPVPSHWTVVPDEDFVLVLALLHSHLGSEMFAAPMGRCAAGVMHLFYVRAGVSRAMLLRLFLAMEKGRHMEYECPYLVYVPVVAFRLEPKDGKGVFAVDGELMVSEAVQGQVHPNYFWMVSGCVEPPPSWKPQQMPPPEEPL
UniProt Q9Y6E0: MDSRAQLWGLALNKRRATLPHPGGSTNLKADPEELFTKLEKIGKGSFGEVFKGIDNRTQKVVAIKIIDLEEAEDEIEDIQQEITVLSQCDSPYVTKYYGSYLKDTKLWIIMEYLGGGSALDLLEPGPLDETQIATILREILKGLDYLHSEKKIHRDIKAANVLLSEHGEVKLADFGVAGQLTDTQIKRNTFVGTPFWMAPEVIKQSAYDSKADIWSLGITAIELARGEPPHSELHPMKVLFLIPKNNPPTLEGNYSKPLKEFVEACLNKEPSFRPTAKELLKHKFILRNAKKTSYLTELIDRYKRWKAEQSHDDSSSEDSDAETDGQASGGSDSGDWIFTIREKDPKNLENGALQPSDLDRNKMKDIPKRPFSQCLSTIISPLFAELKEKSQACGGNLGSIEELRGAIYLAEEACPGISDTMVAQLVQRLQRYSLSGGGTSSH

Columns and labels:
Assay in all cases: kinase-Nluc reporter destabilization hit call (1 = scored as downregulated) (binary); higher = compound decreases kinase abundance
Details in all cases: K562; 2-18 h
RET = RET (UniProt P07949)
[1] = target: RET_M918T (clone: RET_mut) (UniProt P07949)
RIOK1 = RIOK1 (UniProt Q9BRS2)
RIPK1 = RIPK1 (UniProt Q13546)
RIPK2 = RIPK2 (UniProt O43353)
ROR2 = ROR2 (UniProt Q01974)
RPS6KA1 = RPS6KA1 (UniProt Q15418)
SPHK1 = SPHK1 (UniProt Q9NYA1)
SRC = SRC (UniProt P12931)
STK24 = STK24 (UniProt Q9Y6E0)

Measured: kinase-Nluc reporter destabilization hit call

C=CC(=O)Nc1cccc(C)c1Nc1ncc2cc(-c3c(Cl)c(OC)cc(OC)c3Cl)ccc2n1 (2.5 µM)
inactive: RET 0 | [1] 0 | RIOK1 = 0 | RIPK1 = 0 | RIPK2 = 0 | ROR2 = 0 | RPS6KA1 = 0 | SPHK1 = 0 | SRC 0 | STK24 = 0

Cn1cnc(-c2cc3nccc(Oc4ccc(NC(=S)NC(=O)Cc5ccccc5)cc4F)c3s2)c1 [MGCD-265 analog] (10 µM)
inactive: RET 0 | [1] 0 | RIOK1 = 0 | RIPK1 = 0 | RIPK2 = 0 | ROR2 = 0 | RPS6KA1 = 0 | SPHK1 = 0 | SRC 0 | STK24 = 0

CNC(=O)c1ccc(-c2cnc3cnc(C(=O)N(C)c4ccc(Cl)cc4)cn23)cc1 (2.5 µM)
inactive: RET 0 | [1] 0 | RIOK1 = 0 | RIPK1 = 0 | RIPK2 = 0 | ROR2 = 0 | RPS6KA1 = 0 | SPHK1 = 0 | SRC 0 | STK24 = 0

COC1(C(=O)N2Cc3nc(Cl)nc(N[C@H](C)c4cc(N)cc(C(F)(F)F)c4)c3C2)CCOCC1 (10 µM)
inactive: RET 0 | [1] 0 | RIOK1 = 0 | RIPK1 = 0 | RIPK2 = 0 | ROR2 = 0 | RPS6KA1 = 0 | SPHK1 = 0 | SRC 0 | STK24 = 0

CCc1cc(O)c(F)cc1-c1ccc2c(-c3nc4c([nH]3)CN(C3CCN(C)CC3)CC4)n[nH]c2c1 [JAK-IN-5 (hydrochloride)] (2 µM)
inactive: RET 0 | [1] 0 | RIOK1 = 0 | RIPK1 = 0 | RIPK2 = 0 | ROR2 = 0 | RPS6KA1 = 0 | SPHK1 = 0 | SRC 0 | STK24 = 0

N#Cc1cccc(-c2c[nH]c3ncnc(N4CCOCC4)c23)c1 (10 µM)
inactive: RET 0 | [1] 0 | RIOK1 = 0 | RIPK1 = 0 | RIPK2 = 0 | ROR2 = 0 | RPS6KA1 = 0 | SPHK1 = 0 | SRC 0 | STK24 = 0

Cc1cc(Nc2cc(Cl)nc(Oc3ccc([N+](=O)[O-])cc3)n2)n[nH]1 [Autophinib] (2.5 µM)
inactive: RET 0 | [1] 0 | RIOK1 = 0 | RIPK1 = 0 | RIPK2 = 0 | ROR2 = 0 | RPS6KA1 = 0 | SPHK1 = 0 | SRC 0 | STK24 = 0

CS(=O)(=O)c1ccc(-c2cnc(N)c(C(=O)Nc3ccccc3)n2)cc1 (10 µM)
inactive: RET 0 | [1] 0 | RIOK1 = 0 | RIPK1 = 0 | RIPK2 = 0 | ROR2 = 0 | RPS6KA1 = 0 | SPHK1 = 0 | SRC 0 | STK24 = 0

CC(C)c1cnc(-c2cc(Cl)ccc2F)cc1Nc1ccncc1C(=O)NC(CO)CO (2.5 µM)
inactive: RET 0 | [1] 0 | RIOK1 = 0 | RIPK1 = 0 | RIPK2 = 0 | ROR2 = 0 | RPS6KA1 = 0 | SPHK1 = 0 | SRC 0 | STK24 = 0

CN(C)CCN(Cc1ccc(Cl)cc1)c1ccccn1 [Chloropyramine hydrochloride] (10 µM)
inactive: RET 0 | [1] 0 | RIOK1 = 0 | RIPK1 = 0 | RIPK2 = 0 | ROR2 = 0 | RPS6KA1 = 0 | SPHK1 = 0 | SRC 0 | STK24 = 0

CC(C)(C)c1ccc(S(=O)(=O)Nc2ccc(-n3ccnc3)cc2)cc1 (10 µM)
inactive: RET 0 | [1] 0 | RIOK1 = 0 | RIPK1 = 0 | RIPK2 = 0 | ROR2 = 0 | RPS6KA1 = 0 | SPHK1 = 0 | SRC 0 | STK24 = 0

Cc1c(NC(=O)OC[C@@H]2COCCN2)cn2ncnc(Nc3ccc4c(cnn4Cc4cccc(F)c4)c3)c12 (10 µM)
inactive: RET 0 | [1] 0 | RIOK1 = 0 | RIPK1 = 0 | RIPK2 = 0 | ROR2 = 0 | RPS6KA1 = 0 | SPHK1 = 0 | SRC 0 | STK24 = 0

CC1CCc2nc(N)c(C#N)c(-c3cccnc3)c2C1 (stereo not given) (10 µM)
inactive: RET 0 | [1] 0 | RIOK1 = 0 | RIPK1 = 0 | RIPK2 = 0 | ROR2 = 0 | RPS6KA1 = 0 | SPHK1 = 0 | SRC 0 | STK24 = 0

C=C(C)C(=O)Nc1cccc(-c2ncnc3[nH]cc(C(=O)OCC)c23)c1 (10 µM)
inactive: RET 0 | [1] 0 | RIOK1 = 0 | RIPK1 = 0 | RIPK2 = 0 | ROR2 = 0 | RPS6KA1 = 0 | SPHK1 = 0 | SRC 0 | STK24 = 0

N#Cc1c(-c2ccccc2)cc(-c2cc(Br)ccc2O)[nH]c1=O (10 µM)
inactive: RET 0 | [1] 0 | RIOK1 = 0 | RIPK1 = 0 | RIPK2 = 0 | ROR2 = 0 | RPS6KA1 = 0 | SPHK1 = 0 | SRC 0 | STK24 = 0

CC(=O)c1c(C)c2cnc(Nc3ccc(N4CCN(CCCCNC(=O)COc5cccc6c5C(=O)N(C5CCC(=O)NC5=O)C6=O)CC4)cn3)nc2n(C2CCCC2)c1=O (stereo not given) (10 µM)
inactive: RET 0 | [1] 0 | RIOK1 = 0 | RIPK1 = 0 | RIPK2 = 0 | ROR2 = 0 | RPS6KA1 = 0 | SPHK1 = 0 | SRC 0 | STK24 = 0

C#CCN(C)C(=O)CCNc1nc(N2CCN(C(=O)C=C)CC2)c2cc(Cl)c(-c3c(O)cccc3F)c(F)c2n1 [ARS-1323-alkyne] (2.5 µM)
inactive: RET 0 | [1] 0 | RIOK1 = 0 | RIPK1 = 0 | RIPK2 = 0 | ROR2 = 0 | RPS6KA1 = 0 | SPHK1 = 0 | SRC 0 | STK24 = 0

c1cc2c(cc1O[C@H]1OC[C@H]3[C@@H]1CO[C@@H]3c1ccc3c(c1)OCO3)OCO2 [Sesamolin] (10 µM)
inactive: RET 0 | [1] 0 | RIOK1 = 0 | RIPK1 = 0 | RIPK2 = 0 | ROR2 = 0 | RPS6KA1 = 0 | SPHK1 = 0 | SRC 0 | STK24 = 0

CC(C)CC1(O)CCN(C(=O)c2ccc(NS(=O)(=O)c3cccc4nccnc34)cc2)CC1 (10 µM)
inactive: RET 0 | [1] 0 | RIOK1 = 0 | RIPK1 = 0 | RIPK2 = 0 | ROR2 = 0 | RPS6KA1 = 0 | SPHK1 = 0 | SRC 0 | STK24 = 0

OC(COc1ccc(C(F)(F)F)cc1)CN(Cc1ccccc1)Cc1ccccc1 (stereo not given) (2.5 µM)
inactive: RET 0 | [1] 0 | RIOK1 = 0 | RIPK1 = 0 | RIPK2 = 0 | ROR2 = 0 | RPS6KA1 = 0 | SPHK1 = 0 | SRC 0 | STK24 = 0

CN(CC(=O)N(Cc1ccc(C2CCCCC2)cc1)c1ccc(C(=O)O)cc1)S(=O)(=O)c1c(F)c(F)c(F)c(F)c1F (2.5 µM)
inactive: RET 0 | [1] 0 | RIOK1 = 0 | RIPK1 = 0 | RIPK2 = 0 | ROR2 = 0 | RPS6KA1 = 0 | SPHK1 = 0 | SRC 0 | STK24 = 0

Two neighbouring records from above, quoted:
CC(C)(C)c1ccc(S(=O)(=O)Nc2ccc(-n3ccnc3)cc2)cc1 (10 µM)
inactive: RET 0 | [1] 0 | RIOK1 = 0 | RIPK1 = 0 | RIPK2 = 0 | ROR2 = 0 | RPS6KA1 = 0 | SPHK1 = 0 | SRC 0 | STK24 = 0

Cc1c(NC(=O)OC[C@@H]2COCCN2)cn2ncnc(Nc3ccc4c(cnn4Cc4cccc(F)c4)c3)c12 (10 µM)
inactive: RET 0 | [1] 0 | RIOK1 = 0 | RIPK1 = 0 | RIPK2 = 0 | ROR2 = 0 | RPS6KA1 = 0 | SPHK1 = 0 | SRC 0 | STK24 = 0

The list continues:

C[C@@H]1C(=O)O[C@H](C)[C@H]1C[C@@H](O)[C@](C)(O)[C@H]1CC[C@@]2(O)C3=CC(=O)[C@@H]4C[C@@H](O)[C@@H](O)C[C@]4(C)[C@H]3CC[C@]12C [Cyasterone] (10 µM)
inactive: RET 0 | [1] 0 | RIOK1 = 0 | RIPK1 = 0 | RIPK2 = 0 | ROR2 = 0 | RPS6KA1 = 0 | SPHK1 = 0 | SRC 0 | STK24 = 0

COC1(c2sc3c(N4CCOCC4)nc(-c4cnc(N)nc4)nc3c2C)COC1 (2.5 µM)
inactive: RET 0 | [1] 0 | RIOK1 = 0 | RIPK1 = 0 | RIPK2 = 0 | ROR2 = 0 | RPS6KA1 = 0 | SPHK1 = 0 | SRC 0 | STK24 = 0

Nc1ncc(-c2cccc(N3CCNCC3)c2)cc1C(=O)Nc1ccncc1 [PKC-iota inhibitor 1] (10 µM)
inactive: RET 0 | [1] 0 | RIOK1 = 0 | RIPK1 = 0 | RIPK2 = 0 | ROR2 = 0 | RPS6KA1 = 0 | SPHK1 = 0 | SRC 0 | STK24 = 0

O=C(CNC(=O)c1ccc(-c2ccccc2)cc1)NC1CCCc2ccccc21 (stereo not given) [TAO Kinase inhibitor 1] (10 µM)
inactive: RET 0 | [1] 0 | RIOK1 = 0 | RIPK1 = 0 | RIPK2 = 0 | ROR2 = 0 | RPS6KA1 = 0 | SPHK1 = 0 | SRC 0 | STK24 = 0

CCn1c(-c2nonc2N)nc2cnc(Oc3cccc(NC(=O)c4ccc(OCCN5CCOCC5)cc4)c3)cc21 (10 µM)
inactive: RET 0 | [1] 0 | RIOK1 = 0 | RIPK1 = 0 | RIPK2 = 0 | ROR2 = 0 | RPS6KA1 = 0 | SPHK1 = 0 | SRC 0 | STK24 = 0

Cc1ccc(S(=O)(=O)Nc2ccccc2C=Nc2ccccc2NS(=O)(=O)c2ccc(C)cc2)cc1 (10 µM)
inactive: RET 0 | [1] 0 | RIOK1 = 0 | RIPK1 = 0 | RIPK2 = 0 | ROR2 = 0 | RPS6KA1 = 0 | SPHK1 = 0 | SRC 0 | STK24 = 0

Cc1ccc2nc(NC(=O)CSc3nc4c(c(=O)n3-c3ccccc3)SCC4)sc2c1 (2 µM)
inactive: RET 0 | [1] 0 | RIOK1 = 0 | RIPK1 = 0 | RIPK2 = 0 | ROR2 = 0 | RPS6KA1 = 0 | SPHK1 = 0 | SRC 0 | STK24 = 0
